Assay results taken from the supplement of paper PMC10849652.
Some of the results follow.

Chains of the proteins cited; added tags and fusions are not shown. Lines headed by an entry give the natural chain unless they say otherwise; changes in a name come on top.
UniProt Q9NQQ7: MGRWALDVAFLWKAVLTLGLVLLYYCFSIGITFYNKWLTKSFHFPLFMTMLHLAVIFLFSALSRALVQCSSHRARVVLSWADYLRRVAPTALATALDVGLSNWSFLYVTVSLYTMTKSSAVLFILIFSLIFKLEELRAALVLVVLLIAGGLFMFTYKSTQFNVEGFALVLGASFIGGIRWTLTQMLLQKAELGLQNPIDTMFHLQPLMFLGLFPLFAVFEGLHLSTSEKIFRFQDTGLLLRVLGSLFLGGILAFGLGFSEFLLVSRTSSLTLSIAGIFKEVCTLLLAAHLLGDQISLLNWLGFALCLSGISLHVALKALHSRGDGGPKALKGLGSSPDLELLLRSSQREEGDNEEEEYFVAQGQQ
UniProt O43772: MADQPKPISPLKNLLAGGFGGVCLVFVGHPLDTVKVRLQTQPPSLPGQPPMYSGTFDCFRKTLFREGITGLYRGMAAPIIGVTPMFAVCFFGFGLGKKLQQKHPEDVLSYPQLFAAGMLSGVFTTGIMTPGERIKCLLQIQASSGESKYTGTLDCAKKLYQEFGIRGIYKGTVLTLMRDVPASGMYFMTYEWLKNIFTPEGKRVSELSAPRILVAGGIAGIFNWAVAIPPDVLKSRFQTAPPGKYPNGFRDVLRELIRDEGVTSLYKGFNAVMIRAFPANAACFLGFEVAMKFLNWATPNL
UniProt Q6NT16: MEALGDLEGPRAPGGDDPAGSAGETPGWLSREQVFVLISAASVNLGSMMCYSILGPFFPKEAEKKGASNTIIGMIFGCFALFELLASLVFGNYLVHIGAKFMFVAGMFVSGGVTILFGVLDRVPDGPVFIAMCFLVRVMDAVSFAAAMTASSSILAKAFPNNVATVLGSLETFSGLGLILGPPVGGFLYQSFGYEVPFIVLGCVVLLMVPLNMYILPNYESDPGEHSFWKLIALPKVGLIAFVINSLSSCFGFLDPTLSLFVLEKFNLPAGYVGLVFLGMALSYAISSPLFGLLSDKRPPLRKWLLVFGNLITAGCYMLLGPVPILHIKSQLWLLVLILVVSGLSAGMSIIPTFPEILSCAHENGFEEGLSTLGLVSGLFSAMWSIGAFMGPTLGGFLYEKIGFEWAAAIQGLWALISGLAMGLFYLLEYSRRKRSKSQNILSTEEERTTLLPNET
UniProt O15431: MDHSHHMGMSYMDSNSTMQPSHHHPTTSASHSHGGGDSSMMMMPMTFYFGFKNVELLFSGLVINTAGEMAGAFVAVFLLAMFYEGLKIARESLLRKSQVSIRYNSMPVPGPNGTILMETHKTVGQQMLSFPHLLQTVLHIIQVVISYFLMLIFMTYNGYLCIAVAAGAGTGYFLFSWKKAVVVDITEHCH
UniProt Q9H2H9: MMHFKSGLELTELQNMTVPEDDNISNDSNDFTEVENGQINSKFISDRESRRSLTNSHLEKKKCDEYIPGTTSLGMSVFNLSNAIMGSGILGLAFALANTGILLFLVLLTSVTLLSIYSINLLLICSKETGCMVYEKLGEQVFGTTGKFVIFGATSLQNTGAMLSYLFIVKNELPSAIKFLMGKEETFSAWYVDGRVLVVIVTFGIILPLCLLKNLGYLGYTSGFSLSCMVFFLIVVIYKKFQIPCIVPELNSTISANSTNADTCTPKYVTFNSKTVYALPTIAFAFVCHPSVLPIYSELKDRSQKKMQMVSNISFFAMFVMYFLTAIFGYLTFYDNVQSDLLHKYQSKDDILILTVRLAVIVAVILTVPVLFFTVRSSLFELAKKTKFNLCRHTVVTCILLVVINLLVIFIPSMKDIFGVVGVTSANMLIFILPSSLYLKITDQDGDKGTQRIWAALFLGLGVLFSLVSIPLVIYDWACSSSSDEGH
UniProt L0R6Q1: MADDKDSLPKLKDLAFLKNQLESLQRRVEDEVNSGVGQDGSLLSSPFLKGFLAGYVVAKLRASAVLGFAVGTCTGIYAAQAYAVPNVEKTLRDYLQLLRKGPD
UniProt P12235: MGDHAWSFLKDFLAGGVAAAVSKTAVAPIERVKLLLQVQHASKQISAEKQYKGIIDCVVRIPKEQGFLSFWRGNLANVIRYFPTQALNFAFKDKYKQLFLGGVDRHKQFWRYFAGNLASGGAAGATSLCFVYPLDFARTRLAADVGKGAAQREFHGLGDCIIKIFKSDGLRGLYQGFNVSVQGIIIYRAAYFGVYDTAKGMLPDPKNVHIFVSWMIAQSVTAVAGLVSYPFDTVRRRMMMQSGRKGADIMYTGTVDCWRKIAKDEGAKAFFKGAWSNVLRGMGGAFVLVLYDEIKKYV
UniProt Q9H1U9: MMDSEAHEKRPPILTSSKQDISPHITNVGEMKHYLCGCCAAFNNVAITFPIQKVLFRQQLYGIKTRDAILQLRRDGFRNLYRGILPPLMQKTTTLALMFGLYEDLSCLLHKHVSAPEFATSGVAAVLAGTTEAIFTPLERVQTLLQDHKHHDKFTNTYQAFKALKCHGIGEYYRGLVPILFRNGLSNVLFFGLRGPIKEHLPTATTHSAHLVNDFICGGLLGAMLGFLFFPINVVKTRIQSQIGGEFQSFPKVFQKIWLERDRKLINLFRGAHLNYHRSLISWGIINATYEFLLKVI
UniProt Q96AG3: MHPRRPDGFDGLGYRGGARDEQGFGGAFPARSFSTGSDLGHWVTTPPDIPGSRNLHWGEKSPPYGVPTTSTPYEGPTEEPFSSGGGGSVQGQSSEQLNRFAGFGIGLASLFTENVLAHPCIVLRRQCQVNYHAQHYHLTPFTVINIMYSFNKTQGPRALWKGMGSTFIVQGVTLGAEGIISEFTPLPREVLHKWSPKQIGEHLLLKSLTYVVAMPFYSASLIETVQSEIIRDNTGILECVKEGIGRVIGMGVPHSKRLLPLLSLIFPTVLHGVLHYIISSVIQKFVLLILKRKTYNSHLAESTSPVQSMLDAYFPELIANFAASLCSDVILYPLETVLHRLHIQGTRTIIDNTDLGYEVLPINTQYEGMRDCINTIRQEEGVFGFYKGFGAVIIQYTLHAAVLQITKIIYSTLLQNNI
UniProt Q9Y289: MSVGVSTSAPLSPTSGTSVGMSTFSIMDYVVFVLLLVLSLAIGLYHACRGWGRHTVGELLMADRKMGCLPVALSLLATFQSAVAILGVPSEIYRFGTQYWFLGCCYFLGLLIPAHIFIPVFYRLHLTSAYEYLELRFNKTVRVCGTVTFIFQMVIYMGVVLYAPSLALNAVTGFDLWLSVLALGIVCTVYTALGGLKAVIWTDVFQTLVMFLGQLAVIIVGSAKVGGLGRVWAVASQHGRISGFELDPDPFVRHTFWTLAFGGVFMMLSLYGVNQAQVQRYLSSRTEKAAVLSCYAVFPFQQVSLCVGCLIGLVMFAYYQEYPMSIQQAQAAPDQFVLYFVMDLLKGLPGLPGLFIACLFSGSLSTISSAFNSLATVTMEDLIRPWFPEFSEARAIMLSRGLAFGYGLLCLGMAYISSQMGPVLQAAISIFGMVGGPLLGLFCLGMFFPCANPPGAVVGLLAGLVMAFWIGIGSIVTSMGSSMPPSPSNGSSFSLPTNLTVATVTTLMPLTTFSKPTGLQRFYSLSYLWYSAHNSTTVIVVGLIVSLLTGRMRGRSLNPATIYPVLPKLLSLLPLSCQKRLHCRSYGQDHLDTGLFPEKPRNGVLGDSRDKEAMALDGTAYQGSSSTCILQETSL
UniProt P43003, whole entry, looked up: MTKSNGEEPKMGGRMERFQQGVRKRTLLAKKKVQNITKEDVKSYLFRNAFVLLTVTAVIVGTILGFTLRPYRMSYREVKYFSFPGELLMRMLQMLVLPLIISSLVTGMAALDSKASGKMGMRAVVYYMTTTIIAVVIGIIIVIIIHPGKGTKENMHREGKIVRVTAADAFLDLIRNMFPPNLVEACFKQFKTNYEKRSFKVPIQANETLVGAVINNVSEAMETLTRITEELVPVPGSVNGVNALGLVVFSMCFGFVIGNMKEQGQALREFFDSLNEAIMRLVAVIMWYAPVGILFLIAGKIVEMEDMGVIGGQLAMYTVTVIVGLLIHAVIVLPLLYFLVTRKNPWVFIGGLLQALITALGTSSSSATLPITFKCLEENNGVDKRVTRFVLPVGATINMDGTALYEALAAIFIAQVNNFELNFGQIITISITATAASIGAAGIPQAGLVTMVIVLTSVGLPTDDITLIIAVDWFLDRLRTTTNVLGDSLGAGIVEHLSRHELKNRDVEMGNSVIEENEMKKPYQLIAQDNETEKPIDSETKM
UniProt Q6NXT4: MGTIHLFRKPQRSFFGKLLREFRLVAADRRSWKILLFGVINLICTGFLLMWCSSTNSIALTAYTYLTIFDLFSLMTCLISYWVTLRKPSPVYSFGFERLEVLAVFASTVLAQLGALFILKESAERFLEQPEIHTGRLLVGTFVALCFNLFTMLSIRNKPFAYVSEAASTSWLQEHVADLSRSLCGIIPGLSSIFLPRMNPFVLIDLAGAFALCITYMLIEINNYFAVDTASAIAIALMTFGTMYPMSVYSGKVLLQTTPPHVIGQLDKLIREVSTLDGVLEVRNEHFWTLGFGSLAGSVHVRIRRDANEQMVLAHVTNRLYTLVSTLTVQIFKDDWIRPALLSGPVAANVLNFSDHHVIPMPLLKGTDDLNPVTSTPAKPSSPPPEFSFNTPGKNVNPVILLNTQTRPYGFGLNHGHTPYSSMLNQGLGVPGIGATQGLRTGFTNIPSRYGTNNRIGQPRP
UniProt P30825: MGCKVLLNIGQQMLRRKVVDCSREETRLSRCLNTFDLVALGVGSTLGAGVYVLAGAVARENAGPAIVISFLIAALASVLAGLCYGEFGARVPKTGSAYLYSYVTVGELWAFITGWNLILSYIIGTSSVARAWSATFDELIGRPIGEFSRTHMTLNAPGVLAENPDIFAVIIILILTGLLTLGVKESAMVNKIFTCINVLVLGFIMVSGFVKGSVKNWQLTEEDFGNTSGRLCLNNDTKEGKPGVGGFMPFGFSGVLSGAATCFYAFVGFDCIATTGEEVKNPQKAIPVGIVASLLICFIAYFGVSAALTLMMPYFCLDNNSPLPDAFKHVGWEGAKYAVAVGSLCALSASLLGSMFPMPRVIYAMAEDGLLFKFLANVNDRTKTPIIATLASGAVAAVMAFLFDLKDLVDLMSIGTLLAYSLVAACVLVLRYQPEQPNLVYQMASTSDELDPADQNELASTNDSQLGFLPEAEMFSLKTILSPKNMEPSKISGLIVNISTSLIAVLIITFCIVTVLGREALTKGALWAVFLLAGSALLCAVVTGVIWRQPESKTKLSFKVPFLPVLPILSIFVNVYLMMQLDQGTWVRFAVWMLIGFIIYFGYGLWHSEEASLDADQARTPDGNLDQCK
UniProt Q9Y2D2: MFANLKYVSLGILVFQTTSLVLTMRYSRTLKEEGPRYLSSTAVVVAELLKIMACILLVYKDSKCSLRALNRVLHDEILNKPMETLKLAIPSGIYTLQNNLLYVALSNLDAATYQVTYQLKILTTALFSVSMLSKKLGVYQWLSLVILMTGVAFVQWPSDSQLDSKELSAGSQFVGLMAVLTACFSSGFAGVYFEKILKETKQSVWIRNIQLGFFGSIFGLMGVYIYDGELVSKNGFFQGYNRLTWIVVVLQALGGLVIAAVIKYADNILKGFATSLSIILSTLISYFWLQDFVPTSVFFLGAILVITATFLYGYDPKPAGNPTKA
UniProt Q8IWA5: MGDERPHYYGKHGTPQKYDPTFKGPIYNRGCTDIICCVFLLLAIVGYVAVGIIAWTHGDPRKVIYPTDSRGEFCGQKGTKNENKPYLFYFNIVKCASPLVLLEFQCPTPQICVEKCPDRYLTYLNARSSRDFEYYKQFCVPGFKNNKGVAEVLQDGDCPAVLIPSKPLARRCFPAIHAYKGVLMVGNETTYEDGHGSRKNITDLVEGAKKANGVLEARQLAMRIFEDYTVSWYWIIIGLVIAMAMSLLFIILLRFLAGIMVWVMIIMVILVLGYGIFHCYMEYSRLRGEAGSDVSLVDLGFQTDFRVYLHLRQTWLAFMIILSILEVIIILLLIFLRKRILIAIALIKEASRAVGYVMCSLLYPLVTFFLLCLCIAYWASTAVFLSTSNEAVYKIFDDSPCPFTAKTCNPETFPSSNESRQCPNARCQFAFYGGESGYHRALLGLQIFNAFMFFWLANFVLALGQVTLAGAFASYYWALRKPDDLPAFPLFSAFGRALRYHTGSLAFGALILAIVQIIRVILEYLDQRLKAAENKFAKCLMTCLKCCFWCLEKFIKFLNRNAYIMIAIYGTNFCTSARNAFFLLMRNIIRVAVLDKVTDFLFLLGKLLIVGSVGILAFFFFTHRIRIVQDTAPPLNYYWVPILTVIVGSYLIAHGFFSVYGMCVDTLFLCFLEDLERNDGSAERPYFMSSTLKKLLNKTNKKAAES
UniProt P53007, whole entry, looked up: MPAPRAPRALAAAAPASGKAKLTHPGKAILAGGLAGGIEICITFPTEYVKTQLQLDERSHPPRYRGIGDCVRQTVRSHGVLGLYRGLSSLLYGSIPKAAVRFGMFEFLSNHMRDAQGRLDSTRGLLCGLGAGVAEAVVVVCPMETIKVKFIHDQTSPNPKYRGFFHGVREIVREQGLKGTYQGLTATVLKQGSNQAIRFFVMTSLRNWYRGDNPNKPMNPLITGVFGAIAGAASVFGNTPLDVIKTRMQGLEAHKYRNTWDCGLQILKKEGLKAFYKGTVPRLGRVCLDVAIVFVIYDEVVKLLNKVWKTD

compound: C1=CC=C(C=C1)C2=NC(=C(N2)C3=CC=NC=C3)C4=CC(=C(C=C4)Cl)O; assay: log2 fold change, soluble protein after heating vs DMSO (PISA); higher = thermal stabilisation; K562 cells, 10 uM, 30 min; active = over 0.2 and 3.5 SD of the protein, either way, in both replicates (recomputed)
How it was run: (§1)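 K562 cells (2×10^6 cells/mL) were treated with 10 μM compound for 30 min, and aliquots were heated for 3 min over 48°C-58°C. Pooled aliquots were extracted in PBS with 0.5% NP-40 at 4°C, and the supernatant after 21,000xg for 90 min was measured by TMTpro 16plex LC-MS/MS with channel sums equalised. Reported thermal stability, relative to control samples and from duplicates, is a log2 fold change.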

| Target | log2 fold change |
| --- | --- |
| SLC12A4 (UniProt Q9UP95) | inactive: 0.032 |
| SLC35C2 isoform 3 (UniProt Q9NQQ7) | inactive: -0.01 |
| SLC25A20 (UniProt O43772) | inactive: -0.1 |
| SLC18B1 (UniProt Q6NT16) | inactive: 0.12 |
| SLC31A1 (UniProt O15431) | inactive: 0.162 |
| SLC2A3 (UniProt P11169) | inactive: -0.067 |
| SLC4A1AP (UniProt Q9BWU0) | inactive: -0.002 |
| SLC40A1 (UniProt Q9NP59) | inactive: 0.059 |
| SLC38A1 (UniProt Q9H2H9) | inactive: 0.054 |
| SLC30A5 (UniProt Q8TAD4) | inactive: -0.088 |
| SLC25A16 (UniProt P16260) | inactive: -0.024 |
| SLC35A4 (UniProt L0R6Q1) | inactive: 0.038 |
| SLC25A4 (UniProt P12235) | inactive: 0.045 |
| SLC39A6 (UniProt Q13433) | inactive: -0.008 |
| SLC25A51 (UniProt Q9H1U9) | inactive: -0.042 |
| SLC38A2 (UniProt Q96QD8) | inactive: 0.055 |
| SLC38A7 (UniProt Q9NVC3) | active: 0.441 |
| SLC25A46 (UniProt Q96AG3) | inactive: 0.038 |
| SLC5A6 (UniProt Q9Y289) | inactive: 0.059 |

| Target | log2 fold change |
| --- | --- |
| SLC20A1 (UniProt Q8WUM9) | inactive: -0.023 |
| SLC43A1 (UniProt O75387) | inactive: -0.008 |
| SLC1A3 (UniProt P43003) | inactive: 0.007 |
| SLC30A6 isoform 2 (UniProt Q6NXT4) | inactive: -0.02 |
| SLC25A37 (UniProt Q9NYZ2) | inactive: -0.023 |
| SLC7A1 (UniProt P30825) | inactive: 0.016 |
| SLC2A1 (UniProt P11166) | inactive: -0.012 |
| SLC3A2 isoform 3 (UniProt P08195) | inactive: 0.03 |
| SLC33A1 (UniProt O00400) | inactive: 0.187 |
| SLC35A3 isoform 2 (UniProt Q9Y2D2) | inactive: 0.196 |
| SLC3A2 (UniProt F5GZS6) | inactive: 0.168 |
| SLC44A2 isoform 2 (UniProt Q8IWA5) | inactive: 0.073 |
| SLC4A2 (UniProt P04920) | inactive: 0.043 |
| SLC35F6 (UniProt Q8N357) | active: 0.417 |
| SLC37A4 isoform 2 (UniProt O43826) | inactive: -0.041 |
| SLC10A4 (UniProt Q96EP9) | inactive: -0.365 |
| SLC25A1 (UniProt P53007) | inactive: 0.021 |
| SLBP (UniProt Q14493) | inactive: 0.005 |
| SLC38A9 (UniProt Q8NBW4) | inactive: -0.071 |

compound: C1=CC=C2C(=C1)C3=NNC4=CC=CC(=C43)C2=O; assay: as above
How it was run: as §1

| Target | log2 fold change |
| --- | --- |
| SLC12A4 (UniProt Q9UP95) | inactive: -0.063 |
| SLC35C2 isoform 3 (UniProt Q9NQQ7) | inactive: 0.002 |
| SLC25A20 (UniProt O43772) | inactive: -0.016 |
| SLC18B1 (UniProt Q6NT16) | inactive: 0.002 |
| SLC31A1 (UniProt O15431) | inactive: -0.148 |
| SLC2A3 (UniProt P11169) | inactive: -0.021 |
| SLC4A1AP (UniProt Q9BWU0) | inactive: -0.026 |
| SLC40A1 (UniProt Q9NP59) | inactive: -0.15 |
| SLC38A1 (UniProt Q9H2H9) | inactive: -0.104 |
| SLC30A5 (UniProt Q8TAD4) | inactive: -0.022 |
| SLC25A16 (UniProt P16260) | inactive: -0.038 |
| SLC35A4 (UniProt L0R6Q1) | inactive: -0.04 |
| SLC25A4 (UniProt P12235) | inactive: -0.076 |
| SLC39A6 (UniProt Q13433) | inactive: -0.002 |
| SLC25A51 (UniProt Q9H1U9) | inactive: -0.034 |
| SLC38A2 (UniProt Q96QD8) | inactive: 0 |
| SLC38A7 (UniProt Q9NVC3) | inactive: 0.006 |
| SLC25A46 (UniProt Q96AG3) | inactive: 0.023 |
| SLC5A6 (UniProt Q9Y289) | inactive: -0.012 |

| Target | log2 fold change |
| --- | --- |
| SLC20A1 (UniProt Q8WUM9) | inactive: -0.043 |
| SLC43A1 (UniProt O75387) | inactive: -0.089 |
| SLC1A3 (UniProt P43003) | inactive: 0.012 |
| SLC30A6 isoform 2 (UniProt Q6NXT4) | inactive: -0.043 |
| SLC25A37 (UniProt Q9NYZ2) | inactive: 0.018 |
| SLC7A1 (UniProt P30825) | inactive: -0.055 |
| SLC2A1 (UniProt P11166) | inactive: -0.081 |
| SLC3A2 isoform 3 (UniProt P08195) | inactive: -0.044 |
| SLC33A1 (UniProt O00400) | inactive: 0.025 |
| SLC35A3 isoform 2 (UniProt Q9Y2D2) | inactive: -0.039 |
| SLC3A2 (UniProt F5GZS6) | inactive: -0.037 |
| SLC44A2 isoform 2 (UniProt Q8IWA5) | inactive: -0.065 |
| SLC4A2 (UniProt P04920) | inactive: -0.026 |
| SLC35F6 (UniProt Q8N357) | inactive: -0.024 |
| SLC37A4 isoform 2 (UniProt O43826) | inactive: -0.032 |
| SLC10A4 (UniProt Q96EP9) | inactive: -0.228 |
| SLC25A1 (UniProt P53007) | inactive: -0.008 |
| SLBP (UniProt Q14493) | inactive: 0.008 |
| SLC38A9 (UniProt Q8NBW4) | inactive: -0.011 |
